Source: PubChem BioAssay AID1347076 (National Center for Advancing Translational Sciences (NCATS), 2019)
Hit rate of the full screen: of about 400,000 compounds, about 13,000 (3.2%) were called active. The inconclusive results got no clear call from the source; some entries with a clear call stand among them for comparison. The call rests on the fitted dose curve; in most records, active means well fitted cell-killing curve with a large enough effect; inconclusive means small, poorly fitted or top-dose-only effect, or effect the other way; inactive means flat fitted curve, though single readings scatter. Potencies of inconclusive entries are doubtful fits and often do not repeat.
On the % scale 0 is the no-effect control and ±100 the full control effect; potency means the concentration at half of the fitted maximal effect.

Assay: qHTS assay for MDR1-selective chemotherapeutics: Primary screen using the drug-selected MDR subline cells KB-V1; further: nearly all actives have a fitted effect of over 60% in size
Settings: KB-V1 MDR cells viability, CellTiter-Glo, 72 h; activity change, negative = cytotoxicity: at 46.1 µM (top of the series)
In short: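 Cells of the MDR subline KB-V1 are plated, dosed with compound at multiple concentrations, and incubated 72 h at 37 degrees C; CellTiter-Glo is then added and luminescence read after 10 min.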
With `COC(=O)[C@@]12C[C@@H](CC(=O)N3CCCCC3)C(=O)N(Cc3ccccc3)C1=CCC(C)(C)C2` the Potency was inconclusive: 1.84 µM [cytotoxic, full curve]. With `CCOC(=O)c1nc(NCc2ccccc2C)c2ccccc2n1` the Potency was inconclusive: 29.1 µM [cytotoxic, single point]. For `Cc1cccc(NC(=O)CNc2cc(C)ccc2C)c1`, the Potency was inconclusive: 11.6 µM [cytotoxic, partial curve]. With `CCC(C)(C)NC(=O)CN(Cc1ccccc1Cl)C(=O)CCC(=O)Nc1cc(C)ccn1` the Potency was inconclusive: 7.31 µM [cytotoxic, partial curve, poor fit]. In the case of `Nc1nc(CCl)nc(Nc2ccc3ccccc3c2)n1`, the Potency is reported as active: 23.1 µM. In the case of `O=C(CSc1ccc(-c2ccccn2)nn1)NCc1ccc(F)cc1`, the Potency is reported as inconclusive: 16.4 µM [cytotoxic, single point]. In the case of `COc1ccc(C2C(=O)N(C3CCCCC3)CC(=O)N2C2CCCC2)cc1` (stereo not given), the Potency is reported as active: 2.59 µM. For `Cc1[nH]n2c(=O)c3c(nc2c1-c1ccc(Cl)cc1)CCC3`, the Potency was inconclusive: 25.9 µM [cytotoxic, single point]. For `COc1ccc(CNC(=O)Cc2csc3nc(-c4ccc(F)cc4)cn23)cc1`, the “activity change, negative = cytotoxicity” value was inactive: -18.6%. In the case of `CC(C)[C@H](N)c1cn([C@@H](CC(N)=O)C(=O)N2CCNCC2)nn1`, the Potency is reported as inconclusive: 16.4 µM [rising, partial curve]. In the case of `O=C(CSc1ncccn1)NC(=O)c1ccccc1`, the “activity change, negative = cytotoxicity” value is reported as inactive: -5.65%. For `CCc1nn(CC(=O)NCCCN2CCOCC2)c(=O)c2cc3c(OC)cccc3n12`, the “activity change, negative = cytotoxicity” value was inactive: -8.75%. With `C=CCn1c(SCC(=O)c2[nH]c(C)c(C(=O)OCC)c2C)nc2scc(-c3ccc(OC)cc3)c2c1=O` the Potency was inconclusive: 6.51 µM [cytotoxic, partial curve]. In the case of `Cc1ccccc1NS(=O)(=O)c1ccc(C(=O)NCC2(N3CCOCC3)CCCCC2)cc1`, the “activity change, negative = cytotoxicity” value is reported as inactive: 1.98%. For `Cc1ccc(C2=NS(=O)(=O)N(C)C(C(=O)N3CCCCC3)=C2)cc1`, the Potency was inconclusive: 29.1 µM [rising, single point]. With `CC(/C=N/NC(=O)c1nn(C)c(C)c1Br)=C\c1ccccc1` the Potency was inconclusive: 8.2 µM [cytotoxic, partial curve]. With `Cc1noc(C)c1CSc1nc2ccccc2nc1NS(=O)(=O)c1ccc(Cl)cc1` the Potency was inconclusive: 16.4 µM [cytotoxic, single point]. With `COc1ccc(NC(=O)C2(C)CCN2CC2CCCCC2)cc1OC` (stereo not given) the “activity change, negative = cytotoxicity” value was inactive: -2.04%. With `CCCn1c(=O)c2c(nc3n2CCCN3CCc2ccc(OC)c(OC)c2)n(C)c1=O` the Potency was inconclusive: 18.4 µM [cytotoxic, single point]. In the case of `COc1ccc(N(Cc2cccs2)C(=O)Nc2cccc(Cl)c2)cc1`, the “activity change, negative = cytotoxicity” value is reported as inactive: -16.2%. In the case of `CCOC(=O)C1CCCN(S(=O)(=O)c2ccc3c(c2)oc(=O)n3C)C1` (stereo not given), the “activity change, negative = cytotoxicity” value is reported as inactive: -15.7%. With `Cc1ccc(-n2c(SCC(=O)N3c4ccccc4Sc4ccccc43)nnc2-c2ccncc2)cc1` the Potency was inconclusive: 20.6 µM [cytotoxic, single point]. With `COc1ccc(C2CC(=O)N(CC(=O)Nc3ccc(C)c(Cl)c3)c3ccccc3S2)cc1OC` (stereo not given) the Potency was active: 18.4 µM. In the case of `COc1ccc(-c2nc(SCC(=O)NC3CCCC3)c(-c3ccc(C)cc3)[nH]2)cc1OC`, the “activity change, negative = cytotoxicity” value is reported as inactive: -6.53%. In the case of `CCOc1ccc(NC(=O)C(=O)NCC(c2cccnc2)N2CCc3ccccc32)cc1` (stereo not given), the Potency is reported as active: 18.4 µM. With `CC(C)(C)c1ccc(NC(=O)NC2CCCc3ccccc32)cc1` (stereo not given) the Potency was active: 20.6 µM. In the case of `O=C(CCC1N=C2c3ccccc3N=C(SCc3ccccc3Cl)N2C1=O)NCc1ccco1` (stereo not given), the Potency is reported as inconclusive: 18.4 µM [cytotoxic, single point]. In the case of `Cc1ccc(C(=O)c2cn(Cc3ccccc3C)c3nc(C)ccc3c2=O)cc1`, the “activity change, negative = cytotoxicity” value is reported as inactive: -23.9%. In the case of `C[C@@H](c1ccccc1)N1C[C@@H](COCc2ccccc2)Oc2cc(N3CCC[C@@H]3CO)ccc2S1(=O)=O`, the Potency is reported as inconclusive: 9.2 µM [cytotoxic, partial curve]. For `CCN(CC)CCOC(=O)c1c(C)n(C)c2ccc(OC)cc12`, the Potency was inconclusive: 2.06 µM [cytotoxic, full curve, poor fit]. In the case of `COc1ccc(C(=O)Nc2sc3c(c2C(=O)O)CC(C)(C)OC3)cc1`, the Potency is reported as inconclusive: 20.6 µM [cytotoxic, partial curve]. With `COc1cccc(C(=O)OCC(=O)Nc2nnc(-c3ccccc3)o2)c1` the Potency was inconclusive: 29.1 µM [cytotoxic, single point]. For `CCN(CC)c1ccc(NC(=O)CN2CCN(c3ccc(F)cc3)CC2)cc1`, the Potency was inconclusive: 10.3 µM [cytotoxic, partial curve]. For `O=C1Cc2ccccc2C(c2ccc(Cl)cc2Cl)N1` (stereo not given), the Potency was inconclusive: 0.259 µM [cytotoxic, full curve]. In the case of `CCCc1cnc2c(c1SCc1cccc(F)c1)c(=O)n(C)c(=O)n2C`, the “activity change, negative = cytotoxicity” value is reported as inactive: -8.14%. With `O=C(Cc1ccc(F)cc1)OCC(=O)N1CCN(S(=O)(=O)c2ccc(Cl)cc2)CC1` the “activity change, negative = cytotoxicity” value was inactive: -11.6%. With `CCOC(=O)C1CCN(C(=O)c2ccc(N3CCCC3=O)cc2)CC1` the Potency was inconclusive: 18.4 µM [cytotoxic, single point]. For `O=C(CCl)N(c1ccccc1)C1CCS(=O)(=O)C1` (stereo not given), the Potency was inconclusive: 18.4 µM [cytotoxic, single point]. With `COc1ccc(C(CNC(=O)c2ccc(NS(=O)(=O)c3ccc(F)c(C)c3)cc2)N2CCCC2)cc1` (stereo not given) the Potency was inconclusive: 16.4 µM [cytotoxic, partial curve, poor fit]. For `CCOC1=C2[C@@H](CN(S(=O)(=O)c3ccccc3C)[C@H]2c2ccc(Cl)cc2)[C@H]2C(=O)N(C3CCCCC3)C(=O)[C@H]2C1`, the Potency was inconclusive: 4.61 µM [cytotoxic, full curve]. With `COC(=O)c1sc(-c2ccc(C(C)(C)C)cc2)cc1NC(=O)c1ccccc1C(=O)O` the “activity change, negative = cytotoxicity” value was inactive: -2%. In the case of `Cc1nc(C)c(CCNS(=O)(=O)c2ccc(F)cc2)s1`, the Potency is reported as inconclusive: 23.1 µM [cytotoxic, partial curve]. In the case of `Cc1c(C(=O)Nc2cccc(C(F)(F)F)c2)oc2ccc(S(=O)(=O)N3CCOCC3)cc12`, the “activity change, negative = cytotoxicity” value is reported as inactive: 0%. With `O=S(=O)(Nc1cccc(-c2cn3ccsc3n2)c1)c1ccc(F)cc1` the Potency was inconclusive: 29.1 µM [cytotoxic, partial curve, poor fit]. With `Cc1ccccc1OCCC(=O)N(CC(=O)Nc1ccccc1C(F)(F)F)Cc1ccco1` the “activity change, negative = cytotoxicity” value was inactive: 0%. For `CCc1cccc(C)c1NC(=O)COC(=O)CSCc1ccccc1`, the “activity change, negative = cytotoxicity” value was inactive: 21.2%. In the case of `COc1ccccc1CN(C)C(=O)C(c1ccccc1)c1ccccc1`, the Potency is reported as active: 20.6 µM. With `CC(=O)N(Cc1cccc(Br)c1)c1ccc(N2CCOCC2)c(Cl)c1` the Potency was inconclusive: 9.2 µM [cytotoxic, partial curve]. For `Cc1ccc(NC(=O)CN2C(=O)COc3ccc(S(=O)(=O)NC4CCCC4)cc32)c(Cl)c1`, the “activity change, negative = cytotoxicity” value was inactive: -6.47%. In the case of `C[C@H]1CN([C@@H](C)CO)C(=O)CCCn2nncc2CO[C@H]1CN(C)C(=O)c1ccccc1`, the activity change, negative = cytotoxicity is reported as inconclusive: -15.9%. In the case of `C[C@@H]1CN([C@@H](C)CO)C(=O)CCCn2nncc2CO[C@@H]1CN(C)S(=O)(=O)c1ccc2ccccc2c1`, the “activity change, negative = cytotoxicity” value is reported as inactive: -18%. With `COc1cccc(OCCNCc2ccccc2)c1` the “activity change, negative = cytotoxicity” value was inactive: 0%. For `COc1ccc(N2CC(C(=O)N(C)CC(=O)Nc3ccc(Cl)c(C(F)(F)F)c3)CC2=O)c(OC)c1` (stereo not given), the “activity change, negative = cytotoxicity” value was inactive: 2.07%. In the case of `COc1ccc(Cl)cc1NC(=O)C1CCCN(S(=O)(=O)c2cccc3nonc23)C1` (stereo not given), the Potency is reported as inconclusive: 1.64 µM [cytotoxic, full curve, poor fit]. With `Cc1ccc(S(=O)(=O)c2nc(S(C)(=O)=O)sc2NCc2ccc3c(c2)OCO3)cc1` the Potency was inconclusive: 4.11 µM [cytotoxic, partial curve]. In the case of `Cc1ccccc1CSc1nnnn1-c1ccc(C(N)=O)cc1`, the Potency is reported as inconclusive: 14.6 µM [cytotoxic, single point]. With `COc1cccc(/C=N/Nc2ncnc3scc(-c4ccccc4)c23)c1O` the Potency was inconclusive: 2.06 µM [cytotoxic, full curve, poor fit]. With `Fc1ccc(Nc2nc(N3CCOCC3)nc(N3CCOCC3)n2)cc1Cl` the “activity change, negative = cytotoxicity” value was inactive: 1.21%. In the case of `O=C(O)c1cc(S(=O)(=O)N2CCOCC2)c(Sc2ccccn2)cc1Sc1ccccn1`, the Potency is reported as inconclusive: 29.1 µM [rising, single point]. For `CCOC(=O)C1=C(C)N(C)C(=S)NC1c1ccc(Cl)cc1Cl` (stereo not given), the Potency was inconclusive: 23.1 µM [cytotoxic, partial curve, poor fit]. For `CCN(CC(=O)Nc1ccc(NC(C)=O)cc1)C(=O)C1CCCC1`, the “activity change, negative = cytotoxicity” value was inactive: -0.283%. For `CCn1c(=N)n(CC(O)COc2ccccc2)c2ccccc21` (stereo not given), the “activity change, negative = cytotoxicity” value was inactive: -3.69%. For `OCCCCNCc1ccc(OCc2ccccc2Cl)cc1`, the Potency was inconclusive: 18.4 µM [cytotoxic, single point]. In the case of `CC(=O)c1cc2c(cc1NC(=O)Cn1nc(-c3ccc(C)cc3)ccc1=O)OCO2`, the Potency is reported as active: 9.2 µM. In the case of `COc1ccc(C2(c3ccc(OC)cc3)NC(=O)N(CC(=O)N(C)C3CCC(C)CC3)C2=O)cc1` (stereo not given), the Potency is reported as inconclusive: 23.1 µM [cytotoxic, single point]. In the case of `COc1ccc([C@@H]2C[C@H]3[C@@H](CN2S(=O)(=O)c2ccccc2)C(=O)C[C@@H](c2ccc(C)cc2)N3S(=O)(=O)c2ccc(C)cc2)cc1`, the “activity change, negative = cytotoxicity” value is reported as inactive: 0.148%. In the case of `COc1ccc(NC(=O)C(CC(C)C)NC(=O)C2CCCCC2)cc1` (stereo not given), the “activity change, negative = cytotoxicity” value is reported as inactive: -5.73%. With `COC(=O)c1cc(Nc2cc(C)c3ccc(O)cc3n2)cc(C(=O)OC)c1` the “activity change, negative = cytotoxicity” value was inactive: 2.99%. With `Cc1nc2ccc(S(=O)(=O)NC(C(=O)N3CCCCCC3)C(C)C)cc2s1` (stereo not given) the Potency was inconclusive: 1.46 µM [cytotoxic, partial curve]. With `Cn1ccnc1C(O)c1cc(C(C)(C)C)c(O)c(C(C)(C)C)c1` (stereo not given) the “activity change, negative = cytotoxicity” value was inactive: -7.18%.
